Laboratory results published in US20100196321A1, “COMPOUNDS” (GLAXOSMITHKLINE LLC, priority 2009, published 2010).
Some results were stated once for a whole list of compounds, not compound by compound. Some ranges recur; such a range may be that of the whole group of compounds.

target: HCV Genotype 1a NS3-4A Protease Domain (Hepatitis C virus genotype 1a, UniProt P27958, T1100M/T1173A); assay: Hepatitis C NS3 Protease FRET Assay (RET-S1); format: biochemical; details: RET-S1 substrate
Protocol: Hepatitis C NS3 Protease FRET Assay (RET-S1) Using the HCV Genotype 1a NS3-4A Protease Domain
Compounds were tested as inhibitors of HCV NS3-4A protease domain in 10 μl reactions which contained 50 mM HEPES pH 7.5, 20% sucrose, 0.05% NP40, 5 mM DTT, 1 μM 4A peptide ([…] that served as a cofactor and activated the enzyme in the assay) (prepared by standard synthetic methods), 5 μM RET S1 substrate (Ac-DED(EDANS)EEAbu ψ[COO] ASK(DABCYL)) and 1 nM NS3 protease domain. The RET S1 substrate (Ac-Asp-Glu-Asp(EDANS)-Glu-Glu-Abu-ψ-[COO]-Ala-Ser-Lys(DABCYL)-NH2) was purchased from Anaspec, Inc. (Taliani et. al, 1996, Anal Biochem). “ψ-[COO]” refers to the location of the ester bond within the molecule
Cleavage of the substrate, which is based on the natural NS4A/NS4B junction (DEMEECASHL), was monitored by measuring the increase in fluorescence with 355 nm excitation/495 nm emission in a Molecular Devices SpectraMax Gemini plate reader. Compounds were dissolved in DMSO and tested at 10 μM in duplicate or in dose response curves with usually 10 μM top concentration and 3-fold dilutions. The maximum level of DMSO was 5%. The standard compound in the assay was the compound BILN-2061 (Lamarre at al., (2003) Nature, 426, 186-189).

Row | SMILES | IC50 [nM]
1 | COc1ccc2c(O[C@@H]3C[C@H]4C(=O)N[C@]5(C(=O)NS(=O)(=O)C6CC6)C[C@H]5/C=C\CCCCC[C@H](NC(=O)Nc5ccccc5)C(=O)N4C3)cc(-c3nc(C(C)C)cs3)nc2c1C [Example 1, (2R,6S,13aS,14aR,16aS)-N-(cyclopropylsulfonyl)-2-{[8-methyl-2-[4-(1-methylethyl)-1,3-thiazol-2-yl]-7-(methyloxy)-4-quinolinyl]oxy}-5,16-dioxo-6-{[(phenylamino)carbonyl]amino}-1,2,3,6,7,8,9,10,11,13a,14,15,16,16a-tetradecahydrocyclopropa[e]pyrrolo[1,2-a][1,4]diazacyclopentadecine-14a(5H)-carboxamide] | 1 to 10
2 | CCN(CC)C(=O)N[C@H]1CCCCC/C=C\[C@@H]2C[C@@]2(C(=O)NS(=O)(=O)C2CC2)NC(=O)[C@@H]2C[C@@H](Oc3cc(-c4nc(C(C)C)cs4)nc4c(C)c(OC)ccc34)CN2C1=O [Example 2, (2R,6S,13aS,14aR,16aS)-N-(cyclopropylsulfonyl)-6-{[(diethylamino)carbonyl]amino}-2-{[8-methyl-2-[4-(1-methylethyl)-1,3-thiazol-2-yl]-7-(methyloxy)-4-quinolinyl]oxy}-5,16-dioxo-1,2,3,6,7,8,9,10,11,13a,14,15,16,16a-tetradecahydrocyclopropa[e]pyrrolo[1,2-a][1,4]diazacyclopentadecine-14a(5H)-carboxamide] | 1 to 10
3 | COc1ccc2c(O[C@@H]3C[C@H]4C(=O)N[C@]5(C(=O)NS(=O)(=O)C6CC6)C[C@H]5/C=C\CCCCC[C@H](NC(N)=O)C(=O)N4C3)cc(-c3nc(C(C)C)cs3)nc2c1C [Example 3, (2R,6S,13aS,14aR,16aS)-6-[(aminocarbonyl)amino]-N-(cyclopropylsulfonyl)-2-{[8-methyl-2-[4-(1-methylethyl)-1,3-thiazol-2-yl]-7-(methyloxy)-4-quinolinyl]oxy}-5,16-dioxo-1,2,3,6,7,8,9,10,11,13a,14,15,16,16a-tetradecahydrocyclopropa[e]pyrrolo[1,2-a][1,4]diazacyclopentadecine-14a(5H)-carboxamide] | 1 to 10
4 | CCN(CC)C(=O)N[C@H]1CCCCC/C=C\[C@@H]2C[C@@]2(C(=O)NS(=O)(=O)C2CC2)NC(=O)[C@@H]2C[C@@H](Oc3cc(-c4nc(C5CC5)cs4)nc4c(Cl)c(OC)ccc34)CN2C1=O [Example 4, (2R,6S,13aS,14aR,16aS,Z)-2-(8-chloro-2-(4-cyclopropylthiazol-2-yl)-7-methoxyquinolin-4-yloxy)-N-(cyclopropylsulfonyl)-6-(3,3-diethylureido)-5,16-dioxo-1,2,3,5,6,7,8,9,10,11,13a,14,14a,15,16,16a-hexadecahydrocyclopropa[e]pyrrolo[1,2-a][1,4]diazacyclopentadecine-14a-carboxamide] | 1 to 10
5 | CCN(C(=O)N[C@H]1CCCCC/C=C\[C@@H]2C[C@@]2(C(=O)NS(=O)(=O)C2CC2)NC(=O)[C@@H]2C[C@@H](Oc3cc(-c4nc(C5CC5)cs4)nc4c(C)c(OC)ccc34)CN2C1=O)C(C)C [Example 5, (2R,6S,13aS,14aR,16aS)-N-(cyclopropylsulfonyl)-2-{[2-(4-cyclopropyl-1,3-thiazol-2-yl)-8-methyl-7-(methyloxy)-4-quinolinyl]oxy}-6-({[ethyl(1-methylethyl)amino]carbonyl}amino)-5,16-dioxo-1,2,3,6,7,8,9,10,11,13a,14,15,16,16a-tetradecahydrocyclopropa[e]pyrrolo[1,2-a][1,4]diazacyclopentadecine-14a(5H)-carboxamide] | 1 to 10
6 | COc1ccc2c(O[C@@H]3C[C@H]4C(=O)N[C@]5(C(=O)NS(=O)(=O)C6CC6)C[C@H]5/C=C\CCCCC[C@H](NC(=O)N5C[C@@H](C)O[C@@H](C)C5)C(=O)N4C3)cc(-c3nc(C(C)C)cs3)nc2c1C [Example 11, (2R,6S,13aS,14aR,16aS)-N-(cyclopropylsulfonyl)-6-({[(2R,6S)-2,6-dimethyl-4-morpholinyl]carbonyl}amino)-2-{[8-methyl-2-[4-(1-methylethyl)-1,3-thiazol-2-yl]-7-(methyloxy)-4-quinolinyl]oxy}-5,16-dioxo-1,2,3,6,7,8,9,10,11,13a,14,15,16,16a-tetradecahydrocyclopropa[e]pyrrolo[1,2-a][1,4]diazacyclopentadecine-14a(5H)-carboxamide] | 1 to 10
7 | COc1ccc2c(O[C@@H]3C[C@H]4C(=O)N[C@]5(C(=O)NS(=O)(=O)C6CC6)C[C@H]5/C=C\CCCCC[C@H](NC(=O)N5CCS(=O)(=O)CC5)C(=O)N4C3)cc(-c3nc(C(C)C)cs3)nc2c1C [Example 12, (2R,6S,13aS,14aR,16aS)-N-(cyclopropylsulfonyl)-6-{[(1,1-dioxido-4-thiomorpholinyl)carbonyl]amino}-2-{[8-methyl-2-[4-(1-methylethyl)-1,3-thiazol-2-yl]-7-(methyloxy)-4-quinolinyl]oxy}-5,16-dioxo-1,2,3,6,7,8,9,10,11,13a,14,15,16,16a-tetradecahydrocyclopropa[e]pyrrolo[1,2-a][1,4]diazacyclopentadecine-14a(5H)-carboxamide] | 1 to 10
8 | COc1ccc2c(O[C@@H]3C[C@H]4C(=O)N[C@]5(C(=O)NS(=O)(=O)C6CC6)C[C@H]5/C=C\CCCCC[C@H](NC(=O)N5CCN(C6CCCC6)CC5)C(=O)N4C3)cc(-c3nc(C(C)C)cs3)nc2c1C [Example 13, (2R,6S,13aS,14aR,16aS)-6-{[(4-cyclopentyl-1-piperazinyl)carbonyl]amino}-N-(cyclopropylsulfonyl)-2-{[8-methyl-2-[4-(1-methylethyl)-1,3-thiazol-2-yl]-7-(methyloxy)-4-quinolinyl]oxy}-5,16-dioxo-1,2,3,6,7,8,9,10,11,13a,14,15,16,16a-tetradecahydrocyclopropa[e]pyrrolo[1,2-a][1,4]diazacyclopentadecine-14a(5H)-carboxamide] | 1 to 10
9 | COc1ccc2c(O[C@@H]3C[C@H]4C(=O)N[C@]5(C(=O)NS(=O)(=O)C6CC6)C[C@H]5/C=C\CCCCC[C@H](NC(=O)N5CCOCC5)C(=O)N4C3)cc(-c3nc(C(C)C)cs3)nc2c1C [Example 14] | 1 to 10
10 | COc1ccc2c(O[C@@H]3C[C@H]4C(=O)N[C@]5(C(=O)NS(=O)(=O)C6CC6)C[C@H]5/C=C\CCCCC[C@H](NC(=O)N5CCCC5)C(=O)N4C3)cc(-c3nc(C(C)C)cs3)nc2c1C [Example 15, (2R,6S,13aS,14aR,16aS)-N-(cyclopropylsulfonyl)-2-{[8-methyl-2-[4-(1-methylethyl)-1,3-thiazol-2-yl]-7-(methyloxy)-4-quinolinyl]oxy}-5,16-dioxo-6-[(1-pyrrolidinylcarbonyl)amino]-1,2,3,6,7,8,9,10,11,13a,14,15,16,16a-tetradecahydrocyclopropa[e]pyrrolo[1,2-a][1,4]diazacyclopentadecine-14a(5H)-carboxamide] | 1 to 10
11 | COc1ccc2c(O[C@@H]3C[C@H]4C(=O)N[C@]5(C(=O)NS(=O)(=O)C6CC6)C[C@H]5/C=C\CCCCC[C@H](NC(=O)N5CCCCC5)C(=O)N4C3)cc(-c3nc(C(C)C)cs3)nc2c1C [Example 16, (2R,6S,13aS,14aR,16aS)-N-(cyclopropylsulfonyl)-2-{[8-methyl-2-[4-(1-methylethyl)-1,3-thiazol-2-yl]-7-(methyloxy)-4-quinolinyl]oxy}-5,16-dioxo-6-[(1-piperidinylcarbonyl)amino]-1,2,3,6,7,8,9,10,11,13a,14,15,16,16a-tetradecahydrocyclopropa[e]pyrrolo[1,2-a][1,4]diazacyclopentadecine-14a(5H)-carboxamide] | 1 to 10
